Reference: paper PMC6978338
No constants are given. Whether binding was seen depends on the method and setting. In cells and extracts the contact can be indirect. Some results given as binding are weak or reduced against the parent protein; the word gives no strength.

Amino acid sequences for entries named in this document (tags omitted).
UniProt P45481: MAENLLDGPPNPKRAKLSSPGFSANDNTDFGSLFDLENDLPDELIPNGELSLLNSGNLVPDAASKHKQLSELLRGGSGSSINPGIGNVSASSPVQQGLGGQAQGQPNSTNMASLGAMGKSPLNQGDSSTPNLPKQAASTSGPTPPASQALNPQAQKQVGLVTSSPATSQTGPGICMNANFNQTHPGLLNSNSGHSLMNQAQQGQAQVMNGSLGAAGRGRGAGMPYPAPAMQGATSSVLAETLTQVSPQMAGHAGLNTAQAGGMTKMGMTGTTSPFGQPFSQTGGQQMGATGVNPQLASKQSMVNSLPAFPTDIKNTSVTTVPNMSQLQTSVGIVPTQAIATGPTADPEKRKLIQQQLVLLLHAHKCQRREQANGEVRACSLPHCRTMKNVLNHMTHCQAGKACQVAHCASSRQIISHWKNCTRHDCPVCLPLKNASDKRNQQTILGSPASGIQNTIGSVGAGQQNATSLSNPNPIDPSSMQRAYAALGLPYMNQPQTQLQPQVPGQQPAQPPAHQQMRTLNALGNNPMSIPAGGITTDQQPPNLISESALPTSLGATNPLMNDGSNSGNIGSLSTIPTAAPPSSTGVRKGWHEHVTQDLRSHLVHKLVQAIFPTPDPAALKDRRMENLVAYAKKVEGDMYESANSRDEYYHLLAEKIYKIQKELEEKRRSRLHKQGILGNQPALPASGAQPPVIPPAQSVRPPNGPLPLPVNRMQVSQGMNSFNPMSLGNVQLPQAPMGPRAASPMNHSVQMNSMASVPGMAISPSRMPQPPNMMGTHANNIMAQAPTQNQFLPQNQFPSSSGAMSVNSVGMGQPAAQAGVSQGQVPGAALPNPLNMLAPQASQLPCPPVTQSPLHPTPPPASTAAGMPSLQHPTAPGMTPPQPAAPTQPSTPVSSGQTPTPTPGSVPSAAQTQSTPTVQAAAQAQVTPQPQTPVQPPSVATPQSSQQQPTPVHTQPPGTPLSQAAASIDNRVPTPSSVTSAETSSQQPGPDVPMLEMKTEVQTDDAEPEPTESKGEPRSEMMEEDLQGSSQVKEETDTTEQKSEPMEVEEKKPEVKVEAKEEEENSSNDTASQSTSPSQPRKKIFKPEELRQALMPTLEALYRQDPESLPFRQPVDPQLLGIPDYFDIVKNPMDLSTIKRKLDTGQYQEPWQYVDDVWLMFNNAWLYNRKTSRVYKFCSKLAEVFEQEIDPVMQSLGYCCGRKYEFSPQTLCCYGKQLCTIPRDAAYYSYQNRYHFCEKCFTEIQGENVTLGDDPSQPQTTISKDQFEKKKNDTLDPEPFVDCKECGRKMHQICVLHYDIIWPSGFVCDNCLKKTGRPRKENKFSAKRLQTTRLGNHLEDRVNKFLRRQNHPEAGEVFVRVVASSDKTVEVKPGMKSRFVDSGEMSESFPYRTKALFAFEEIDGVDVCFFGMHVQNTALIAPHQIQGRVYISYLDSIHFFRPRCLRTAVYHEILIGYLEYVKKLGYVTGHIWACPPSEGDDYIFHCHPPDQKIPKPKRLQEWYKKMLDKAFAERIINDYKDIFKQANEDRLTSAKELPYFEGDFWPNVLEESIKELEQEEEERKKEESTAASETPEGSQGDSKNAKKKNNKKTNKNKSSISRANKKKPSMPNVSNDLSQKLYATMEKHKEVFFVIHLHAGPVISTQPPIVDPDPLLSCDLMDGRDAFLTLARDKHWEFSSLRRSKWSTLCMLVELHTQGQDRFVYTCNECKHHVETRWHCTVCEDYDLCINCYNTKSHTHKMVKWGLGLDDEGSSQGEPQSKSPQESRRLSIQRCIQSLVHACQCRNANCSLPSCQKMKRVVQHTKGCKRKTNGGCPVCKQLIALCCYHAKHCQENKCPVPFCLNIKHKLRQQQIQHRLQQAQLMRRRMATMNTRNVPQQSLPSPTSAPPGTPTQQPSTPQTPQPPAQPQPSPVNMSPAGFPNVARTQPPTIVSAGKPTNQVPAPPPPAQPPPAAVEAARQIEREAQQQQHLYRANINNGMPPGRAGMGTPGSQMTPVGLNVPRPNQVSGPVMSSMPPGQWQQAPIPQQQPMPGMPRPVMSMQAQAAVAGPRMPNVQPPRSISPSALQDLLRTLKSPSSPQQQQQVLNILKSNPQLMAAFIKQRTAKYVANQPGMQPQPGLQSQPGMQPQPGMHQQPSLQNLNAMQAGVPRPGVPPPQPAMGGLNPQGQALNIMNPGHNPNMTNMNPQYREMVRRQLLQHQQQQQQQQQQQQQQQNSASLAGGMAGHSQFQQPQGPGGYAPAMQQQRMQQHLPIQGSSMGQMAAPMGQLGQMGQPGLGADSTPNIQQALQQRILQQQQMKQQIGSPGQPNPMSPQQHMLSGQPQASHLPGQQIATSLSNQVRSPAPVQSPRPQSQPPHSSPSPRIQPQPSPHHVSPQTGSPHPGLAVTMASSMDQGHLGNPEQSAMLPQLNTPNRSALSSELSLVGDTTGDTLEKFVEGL

Molecular target: T1, Zinc-finger E-box-binding homeobox 1 (ZEB1) (mouse (endogenous in bone ECs from mouse tibia)) (UniProt Q64318)
T1 sequence: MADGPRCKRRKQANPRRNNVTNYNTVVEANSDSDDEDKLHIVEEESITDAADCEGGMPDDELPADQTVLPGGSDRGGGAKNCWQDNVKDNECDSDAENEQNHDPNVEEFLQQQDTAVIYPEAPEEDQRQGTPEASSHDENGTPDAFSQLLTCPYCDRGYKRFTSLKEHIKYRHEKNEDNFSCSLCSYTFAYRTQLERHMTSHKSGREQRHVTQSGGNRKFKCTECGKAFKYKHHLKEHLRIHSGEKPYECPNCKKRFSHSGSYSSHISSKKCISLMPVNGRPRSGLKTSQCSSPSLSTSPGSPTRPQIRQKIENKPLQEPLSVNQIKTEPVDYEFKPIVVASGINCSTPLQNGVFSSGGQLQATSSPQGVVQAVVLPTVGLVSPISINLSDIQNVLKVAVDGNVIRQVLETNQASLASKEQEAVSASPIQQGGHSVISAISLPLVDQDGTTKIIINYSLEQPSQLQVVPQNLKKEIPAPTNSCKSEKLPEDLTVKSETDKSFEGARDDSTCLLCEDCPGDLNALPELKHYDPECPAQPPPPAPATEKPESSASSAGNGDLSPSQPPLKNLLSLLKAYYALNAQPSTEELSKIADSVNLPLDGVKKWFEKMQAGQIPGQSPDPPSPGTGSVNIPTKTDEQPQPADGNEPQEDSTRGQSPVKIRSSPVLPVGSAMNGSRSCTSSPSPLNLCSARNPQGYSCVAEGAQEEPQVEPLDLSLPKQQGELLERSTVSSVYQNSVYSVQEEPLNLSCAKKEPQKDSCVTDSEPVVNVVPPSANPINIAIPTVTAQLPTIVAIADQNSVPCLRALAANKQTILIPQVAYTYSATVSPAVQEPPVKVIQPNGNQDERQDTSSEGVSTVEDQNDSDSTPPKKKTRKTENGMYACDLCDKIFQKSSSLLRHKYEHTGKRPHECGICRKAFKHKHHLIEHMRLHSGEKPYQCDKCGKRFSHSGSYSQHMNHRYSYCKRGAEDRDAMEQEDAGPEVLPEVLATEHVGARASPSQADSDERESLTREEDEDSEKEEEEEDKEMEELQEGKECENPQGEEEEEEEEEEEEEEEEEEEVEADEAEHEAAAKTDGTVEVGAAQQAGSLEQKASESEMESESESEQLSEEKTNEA
Test: co-IP; endogenous ZEB1 precipitated with anti-ZEB1 antibody and Protein A/G agarose beads from bone ECs (legend: nuclear extracts); IP lysis buffer 50 mM Tris-HCl, 150 mM NaCl, 1 mM EDTA, 1% NP40, pH 7.4; immunoblot for CBP, p300 and ZEB1

binding: binds
Substance: CREB-binding protein (CBP) (from UniProt P45481 1-2441)
